Laboratory results taken from patent publication US20230272390A1, “COMPOSITIONS AND METHODS FOR HEMOGLOBIN PRODUCTION” (THE CHILDREN'S HOSPITAL OF PHILADELPHIA, priority 2020, published 2023).
Where cells or extracts were used, other partners may take part. Protein sequences can lack the tags named with them.

Key:
[1] = molecular target: T1, ZNF410 ZF1-5 (Homo sapiens) (UniProt Q86VK4); assay: EMSA; settings: supershift with anti-FLAG, protein in a lysate after overexpression, protein details: FLAG (pcDNA3, COS-7 nuclear extract), label: 32P
T1 sequence: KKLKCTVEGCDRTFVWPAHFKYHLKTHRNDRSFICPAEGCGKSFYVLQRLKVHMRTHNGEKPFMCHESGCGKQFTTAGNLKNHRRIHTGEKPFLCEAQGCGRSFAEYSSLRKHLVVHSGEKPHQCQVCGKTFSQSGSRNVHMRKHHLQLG

[2] = molecular target: T2, ZNF410 full length (Homo sapiens) (UniProt Q86VK4); assay: EMSA; settings: supershift with anti-FLAG, protein in a lysate after overexpression, protein details: N-terminal FLAG (pcDNA3, COS-7 nuclear extract), label: 32P
T2 sequence: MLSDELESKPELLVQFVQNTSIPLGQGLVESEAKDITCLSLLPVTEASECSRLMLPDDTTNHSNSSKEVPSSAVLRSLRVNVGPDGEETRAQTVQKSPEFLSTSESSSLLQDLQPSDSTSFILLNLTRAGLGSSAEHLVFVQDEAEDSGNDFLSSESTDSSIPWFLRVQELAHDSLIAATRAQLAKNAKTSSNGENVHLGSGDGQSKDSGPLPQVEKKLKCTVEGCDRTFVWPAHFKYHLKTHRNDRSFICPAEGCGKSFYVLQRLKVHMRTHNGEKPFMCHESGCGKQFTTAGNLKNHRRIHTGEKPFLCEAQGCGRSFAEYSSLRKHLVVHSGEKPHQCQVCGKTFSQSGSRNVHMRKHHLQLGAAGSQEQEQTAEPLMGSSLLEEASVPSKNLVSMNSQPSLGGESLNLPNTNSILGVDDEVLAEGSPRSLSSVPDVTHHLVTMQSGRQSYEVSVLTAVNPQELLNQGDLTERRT

Row | Sequence | binding result [1] | binding result [2] | binding result ([1]; similar intensity over four probes) | binding result ([2]; comparable over four probes)
1 | GCCTCACCAACCCATAATATTCCCCAGTCT (double strand) [CHD4 EMSA probe 4] | binds | binds | – | –
2 | ACACACGACATCCCATAATATCTTCTGGAG (double strand) [CHD4 EMSA probe 3] | binds | binds | – | –
3 | GCCTCATATCCCATAATATTCAGCCCCAT (double strand) [CHD4 EMSA probe 1] | – | – | binds | binds
4 | GAGCCAGGCATCCCATAATATTCATATTCT (double strand) [CHD4 EMSA probe 2] | binds | binds | – | –
